Values from PubChem BioAssay AID1259254 (NCATS, 2017)

Screen: 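Gene knock-downs that lead to re-replication, shown by excess G2 DNA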 (primary screen)
System: human HCT116 colorectal cancer cells
Reagents: single siRNA against human genes
Time to read-out: 3 days
Measurement: 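Nuclei stained with Hoechst and imaged; cell-cycle phase assigned by DNA content; G2 share scaled per plate, non-targeting siRNA 0%, GMNN siRNA 100%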
Reading the numbers: G2 robust z-score and G2 cells, % of GMNN control: higher = more G2 cells, more excess DNA replication
Rule for the call: 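An siRNA counts as active if its G2 robust z-score lies at least 5 MADs above the screen median; here such calls match roughly 38% of GMNN control or more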
The whole screen tested about 59,000 reagents; this is a part drawn at random. Of all reagents, about 1,550 (2.6%) are marked active. 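G2 share is only a proxy for re-replication; each gene was hit by three separate siRNAs, and active genes were retested.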 The numbers tell different reagents against one gene apart. Further read-outs or replicates are left out here. Not given: the amount of reagent.

How did the screen score MIEN1 #1?
G2 robust z-score: -0.172; G2 cells, % of GMNN control: 1.76; activity call: inactive

With MIEN1 #2, what does the deposit list?
G2 robust z-score: 0.408; G2 cells, % of GMNN control: 5.83; activity call: inactive

What did the screen give for MIEN1 #3?
G2 robust z-score: -0.0665; G2 cells, % of GMNN control: 2.5; activity call: inactive

For NOP14 #1, what was measured?
G2 robust z-score: 0.66; G2 cells, % of GMNN control: 7.61; activity call: inactive

With NOP14 #2, what was measured?
G2 robust z-score: 1.56; G2 cells, % of GMNN control: 13.9; activity call: inactive

With NOP14 #3, how do the results read?
G2 robust z-score: 1.84; G2 cells, % of GMNN control: 15.9; activity call: inactive

With PLCL1 #1, what does the deposit list?
G2 robust z-score: 2.18; G2 cells, % of GMNN control: 18.3; activity call: inactive

With PLCL1 #2, what was measured?
G2 robust z-score: -0.649; G2 cells, % of GMNN control: -1.6; activity call: inactive

With PLCL1 #3, what does the deposit list?
G2 robust z-score: -0.0373; G2 cells, % of GMNN control: 2.71; activity call: inactive

For GAK #1, what was measured?
G2 robust z-score: -0.979; G2 cells, % of GMNN control: -3.92; activity call: inactive

Which result is listed for GAK #2?
G2 robust z-score: -0.578; G2 cells, % of GMNN control: -1.1; activity call: inactive

Which result is listed for GAK #3?
G2 robust z-score: -0.594; G2 cells, % of GMNN control: -1.21; activity call: inactive

For MBD3L1 #1, how do the results read?
G2 robust z-score: 0.56; G2 cells, % of GMNN control: 6.91; activity call: inactive

With MBD3L1 #2, what does the deposit list?
G2 robust z-score: 0.645; G2 cells, % of GMNN control: 7.51; activity call: inactive

What is on record for MBD3L1 #3?
G2 robust z-score: -0.341; G2 cells, % of GMNN control: 0.571; activity call: inactive

Which result is listed for CPD #1?
G2 robust z-score: 1.23; G2 cells, % of GMNN control: 11.6; activity call: inactive

What did the screen give for CPD #2?
G2 robust z-score: -0.715; G2 cells, % of GMNN control: -2.06; activity call: inactive

How did the screen score CPD #3?
G2 robust z-score: -1.06; G2 cells, % of GMNN control: -4.46; activity call: inactive

Which result is listed for CORO1C #1?
G2 robust z-score: 1.99; G2 cells, % of GMNN control: 16.9; activity call: inactive

For CORO1C #2, what was measured?
G2 robust z-score: -0.422; G2 cells, % of GMNN control: -0.00165; activity call: inactive

For CORO1C #3, what was measured?
G2 robust z-score: -0.206; G2 cells, % of GMNN control: 1.52; activity call: inactive

With CR1 #1, what does the deposit list?
G2 robust z-score: 0.797; G2 cells, % of GMNN control: 8.58; activity call: inactive

What is on record for CR1 #2?
G2 robust z-score: -0.132; G2 cells, % of GMNN control: 2.04; activity call: inactive

What is on record for CR1 #3?
G2 robust z-score: -0.532; G2 cells, % of GMNN control: -0.776; activity call: inactive

What did the screen give for UQCC3 #1?
G2 robust z-score: 0.593; G2 cells, % of GMNN control: 7.14; activity call: inactive

What did the screen give for UQCC3 #2?
G2 robust z-score: -0.596; G2 cells, % of GMNN control: -1.23; activity call: inactive

For UQCC3 #3, what does the deposit list?
G2 robust z-score: -0.446; G2 cells, % of GMNN control: -0.173; activity call: inactive

How did the screen score SERPINB1 #1?
G2 robust z-score: -0.561; G2 cells, % of GMNN control: -0.983; activity call: inactive

With SERPINB1 #2, what was measured?
G2 robust z-score: -0.112; G2 cells, % of GMNN control: 2.18; activity call: inactive

With SERPINB1 #3, what does the deposit list?
G2 robust z-score: -0.703; G2 cells, % of GMNN control: -1.98; activity call: inactive

4 of these entries, reformatted:
| target | reagent | G2 robust z-score | G2 cells, % of GMNN control | activity call |
| --- | --- | --- | --- | --- |
| GAK | 2 | -0.578 | -1.1 | inactive |
| GAK | 3 | -0.594 | -1.21 | inactive |
| MBD3L1 | 1 | 0.56 | 6.91 | inactive |
| MBD3L1 | 2 | 0.645 | 7.51 | inactive |
